# Percent effect of library compounds

The values are deposited in ChEMBL (CHEMBL3988442, “University of Dundee, Small-Polar-MMV Screening Library” (2021)).

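Growth of Mycobacterium tuberculosis over 4 days (cholesterol / DPPC medium with tyloxapol); the read-out is not stated. Concentration: 500 µM. Direction is inferred from retests: higher values go with more growth inhibition. Of about 18,000 compounds tested this way, about 900 (5%) reached 50% or more in at least one test.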

The filed quantity is “Percent Effect” (%).
The record does not define 0% and 100%; most values in the screen are far below 50% and negative numbers occur (in some assays of this library far below -100).
This is an unselected part of the compounds tested.

| # | structure | Percent Effect |
|---|---|---|
| 1 | `CC(=O)CN1CCCc2ccccc2C1` | 23.67 |
| 2 | `Cc1cc2cc(C(=O)N3CCC[C@@H]3C(N)=O)ccc2o1` | -5.185 |
| 3 | `CCC(CO)Nc1nccc(C(F)(F)F)n1` (stereo not shown) | 53.48 |
| 4 | `CS(=O)(=O)CCN(CC(O)c1ccc(F)cc1)C1CC1` (stereo not shown) | 7.247 |
| 5 | `Cc1cc(C)n(CC(C)CN)n1` (stereo not shown) | 12.64 |
| 6 | `Cc1ccc(NC(=O)CN2CCN(C)CC2)c(Br)c1` | -3.736 |
| 7 | `Cc1ccc(C)c(C(=O)N2C[C@@H](CO)[C@H](N(C)C)C2)c1` | -3.69 |
| 8 | `Cc1cccc(C)c1NCC(=O)N1CC[C@H](O)C1` | 6.411 |
| 9 | `O=C(Cc1cccc(O)c1)NC1CCN(C2CC2)C1` (stereo not shown) | 13.39 |
| 10 | `CCCS(=O)(=O)NCC1CCCN1CCOC` (stereo not shown) | -3.482 |
| 11 | `NCc1ccc(N2CCNC(=O)C2)cc1` | 9.428 |
| 12 | `Cc1cccc(CC(=O)NCC2CCCNC2)c1` (stereo not shown) | 8.8 |
| 13 | `NS(=O)(=O)C1CCCc2ccccc21` (stereo not shown) | -0.2524 |
| 14 | `COc1cc(CNCCO)c(Cl)cc1OCC(N)=O` | -0.02942 |
| 15 | `CN1CCC(N(C)C(=O)CC(C)(C)C)CC1` | -5.618 |
| 16 | `COCCN1C(=O)c2cccn2CC1CN` (stereo not shown) | -9.085 |
| 17 | `CN1CN(C(=O)c2ccc(Br)cc2Cl)CC1=O` | 3.612 |
| 18 | `CC(N)CCN1CCN(C)CC1` (stereo not shown) | -5.982 |
| 19 | `NCc1cccc2cc[nH]c12` | 52.88 |
| 20 | `O=C(CCNC(=O)c1ccco1)NC1CCS(=O)(=O)C1` (stereo not shown) | 3.526 |
| 21 | `Cc1ccc(F)cc1C(=O)NCCNC1CC1` | 26.91 |
| 22 | `N#Cc1cccc(OCCSc2nnc[nH]2)c1` | 41.74 |
| 23 | `Cc1ccc(C)c(NC(=O)N[C@@H]2CNCC[C@H]2O)c1` | 5.893 |
| 24 | `CCN(CC)C1CCN(C(=O)Nc2cccnn2)C1` (stereo not shown) | 2.615 |
| 25 | `O=S(=O)(Cc1ccccn1)Cc1ccccc1Cl` | 14.52 |
| 26 | `CN(CCO)c1ccc(C(F)(F)F)cn1` | 12.1 |
| 27 | `COCc1cccc(S(=O)(=O)N2CC[C@H](N)C2)c1` | -1.32 |
| 28 | `O=C(NCCOCc1ccc(Cl)cc1)C1CNCCO1` (stereo not shown) | 27.05 |
| 29 | `CC(=O)N1CCN(Cc2cc(Br)c3c(c2)OCO3)CC1` | 35.22 |
| 30 | `C=C(Cl)CN(C)C(CO)c1cccc(F)c1` (stereo not shown) | 21.91 |
| 31 | `CC(C)(C)OCCO[C@H]1C[C@@H](O)C1` | -11.41 |
| 32 | `CN(CCC#N)C(=O)CSc1ccc2c(c1)OCCO2` | 20.37 |
| 33 | `Oc1ccc(-c2nnc[nH]2)cc1` | 2.115 |
| 34 | `CCCc1nnc(NCc2ccc(OC)c(O)c2)o1` | 34.06 |
| 35 | `Cn1c(CO)nnc1SCC=Cc1ccccc1` | 56.7 |
| 36 | `CC(C)NC(=O)CCN(C)C(C)Cc1cnccn1` (stereo not shown) | -27.56 |
| 37 | `O=C(NCCO)NC1CCS(=O)(=O)C1` (stereo not shown) | -10.76 |
| 38 | `COC(=O)c1[nH]cc(-c2ccccc2)c1N` | 53.68 |
| 39 | `COCc1cc(=O)[nH]c(C2(N)CCCC2)n1` | 3.4 |
| 40 | `Cc1cccc(=O)n1CCCNC(=O)c1cnco1` | -17.74 |
| 41 | `OC1CCN(C2COC2)CC1` | 0.6695 |
| 42 | `N[C@@H]1c2ccccc2C[C@@H]1O` | 25.88 |
| 43 | `O=C(CNCC1CC1)Nc1ccc(F)cc1` | 34.32 |
| 44 | `COCC(=O)Nc1cccc(CN(C)C(C)=O)c1` | -1.054 |
| 45 | `CC(C)c1noc(CN2CCC(CO)CC2)n1` | 28.69 |
| 46 | `Cc1ncccc1NS(=O)(=O)CCc1ccccc1` | -2.329 |
| 47 | `CC(C)(C)CNC(=O)Cc1csc(N2CCCC2=O)n1` | 0.6947 |
| 48 | `CN(CC1CCOCC1)C(=O)CSc1nnc(N)s1` | -0.8327 |
| 49 | `CC1CCCCN1CCNC(=O)c1cnccn1` (stereo not shown) | -1.96 |
| 50 | `NCc1nc(-c2ccc(OC(F)(F)F)cc2)no1` | 84.27 |
| 51 | `CNCC(O)c1cccnc1` (stereo not shown) | -1.902 |
| 52 | `Cn1cncc1CN1CCCC(CS(C)(=O)=O)C1` (stereo not shown) | -7.148 |
| 53 | `CCC(CC)C(CN)N(C)C` (stereo not shown) | 56.05 |
| 54 | `NCc1ccc(CC(N)=O)cc1` | -2.409 |
| 55 | `CCn1c(CCNC(=O)CCCO)nc2ccccc21` | 2.556 |
| 56 | `CCCNCc1cc(OC)c(OCC(N)=O)cc1Br` | 7.692 |
| 57 | `CC(C(=O)N1CCCCCC1)N1CCNCC1` (stereo not shown) | -6.744 |
| 58 | `CSC(C)C(=O)Nc1ccc(Cl)c(C(=O)N(C)C)c1` (stereo not shown) | -13.03 |
| 59 | `CC(=O)N(Cc1noc(C(C)C)n1)C1CCNC1` (stereo not shown) | 4.35 |
| 60 | `O=C(N[C@H]1C[C@@H]2OCC[C@H]12)c1ccc2[nH]nnc2c1` | 14.19 |

Repeated from the top, 4 entries:

structure,Percent Effect
CC(=O)CN1CCCc2ccccc2C1,23.67
Cc1cc2cc(C(=O)N3CCC[C@@H]3C(N)=O)ccc2o1,-5.185
CCC(CO)Nc1nccc(C(F)(F)F)n1 (stereo not shown),53.48
CS(=O)(=O)CCN(CC(O)c1ccc(F)cc1)C1CC1 (stereo not shown),7.247